{"source": "PubChem BioAssay AID540276", "about": "(National Center for Advancing Translational Sciences (NCATS), 2011)", "note": "Where “and” joins values, the source holds several entries; their conditions need not be identical. Identical values can stand only once. Among all 300,000 compounds or so, about 5,400 (1.8%) were called active. Inconclusive means that the source gave no clear call. Such entries were picked first, then a sample of the others. Calls come from the whole dose curve; tested in HEK293 cells. A potency beside an inconclusive call is a rough fit, not a confirmed value. Potency is the fitted concentration of half-maximal effect.", "data": [{"assay": "qHTS for inhibitors of binding or entry into cells for Marburg Virus", "conditions": "Marburg virus pseudotyped entry inhibition, cell reporter; series mostly up to 37.8 µM", "values": [{"compound": "O=C(CCSc1nc(-c2ccco2)cc(C(F)(F)F)n1)NCCc1ccccc1", "Potency": "inconclusive: 20 µM [inhibitor, single point]"}, {"compound": "O=C(c1ccc(Cn2c(=O)[nH]c3ccccc3c2=O)cc1)N1CCN(c2ccc(Cl)cc2)CC1", "Potency": "inconclusive: 29.1 µM [inhibitor, single point]"}, {"compound": "CCCNS(=O)(=O)c1ccc(OCC(=O)Nc2ccc3c(c2)OCO3)cc1", "Potency": "inconclusive: 5.62 µM [activator, single point]"}, {"compound": "COC(=O)c1cc2oc3ccccc3c2n1Cc1nc(-c2ccc(Cl)cc2)oc1C", "Potency": "inactive"}, {"compound": "CN1CCN(c2ccc(Cl)cc2NC(=O)c2ccc(=O)n(C)n2)CC1", "Potency": "inconclusive: 35.5 µM [inhibitor, partial curve, poor fit]"}, {"compound": "CC1=NN(c2ccccc2)C(=O)/C1=C/c1ccc(-c2ccc(C)c(C(=O)O)c2)o1", "Potency": "inconclusive: 7.08 µM [activator, partial curve, poor fit]"}, {"compound": "CC(C)n1c(NCc2cccs2)nc2ccccc21", "Potency": "inactive"}, {"compound": "CCCOC(=O)c1ccc(NC(=O)c2cccc(S(=O)(=O)N3CCN(C(C)=O)CC3)c2)cc1", "Potency": "inconclusive: 12.6 µM [inhibitor, partial curve, poor fit]"}, {"compound": "CCCCN(C)C(=O)c1cc2cc([N+](=O)[O-])cc(OC)c2oc1=O", "Potency": "inactive"}, {"compound": "OCCCC1CCCCN1Cc1nc(Cc2ccccc2Cl)no1", "note": "(centres undefined)", "Potency": "inconclusive: 6.31 µM [activator, single point]"}, {"compound": "O=C(COc1ccc(F)cc1)N(c1ccccn1)C1CCCCC1", "Potency": "inactive"}, {"compound": "O=C1CN(C(=O)c2cc([N+](=O)[O-])ccc2Cl)C(c2ccc(F)cc2)c2cc(F)ccc2N1", "note": "(centres undefined)", "Potency": "inconclusive: 10 µM [inhibitor, partial curve]"}, {"compound": "Cc1ccc(-c2nc(NC(=O)CSc3cc(C)c4ccccc4n3)ns2)cc1", "Potency": "inconclusive: 35.5 µM [inhibitor, single point]"}, {"compound": "Cc1ccc(-c2csc(NC(=O)CN3CCC(C(N)=O)CC3)n2)cc1", "Potency": "inconclusive: 0.794 µM [activator, single point]"}, {"compound": "CCOc1ccc(-c2cc(CCCC(=O)Nc3cc(OC)ccc3OC)no2)cc1", "Potency": "inconclusive: 0.206 µM [inhibitor, full curve]"}, {"compound": "C=CCSc1nnc2c(n1)[nH]c1c(C)cccc12", "Potency": "inconclusive: 29.1 µM [inhibitor, single point]"}, {"compound": "CCCNC(=O)c1c[nH]c2ccc(S(=O)(=O)N(C)c3ccc(OCC)cc3)cc2c1=O", "Potency": "inconclusive: 1 µM [inhibitor, full curve, poor fit]"}, {"compound": "Cc1[nH]nc2c1C(c1ccc(-c3ccc(Cl)cc3)o1)C(C#N)=C(N)O2", "note": "(centres undefined)", "Potency": "inconclusive: 0.891 µM [activator, partial curve, poor fit]"}, {"compound": "O=C(Cc1ccc([N+](=O)[O-])cc1)Nc1ccc(Br)cn1", "Potency": "inconclusive: 35.5 µM [activator, single point]"}, {"compound": "COc1cc(Cl)c(S(=O)(=O)NCCc2c(C)[nH]c3c(C)cccc23)cc1Cl", "Potency": "inactive"}, {"compound": "Cc1ccc(C)c(C(=O)CCC(=O)N2CCN(c3ncccn3)CC2)c1", "Potency": "inconclusive: 5.01 µM [activator, full curve, poor fit]"}, {"compound": "COc1cccc(C(=O)NCC(c2cccs2)N2CCc3ccccc32)c1", "note": "(centres undefined)", "Potency": "inconclusive: 20 µM [inhibitor, single point]"}, {"compound": "O=C(Nc1ccc2c(c1)OCO2)c1cccs1", "Potency": "inconclusive: 6.51 µM [activator, single point]"}, {"compound": "O=C(NCCc1csc(-c2ccccc2)n1)c1c(F)cccc1Cl", "Potency": "inactive"}, {"compound": "COc1cc(C2C(C#N)=C(N)Oc3c2ccc2ccccc32)ccc1OCC(=O)Nc1ccccc1C", "note": "(centres undefined)", "Potency": "inconclusive: 18.3 µM [inhibitor, partial curve, poor fit]"}, {"compound": "COc1ccc(N2CCN(Cc3nc(N)nc(Nc4ccc(C)c(Cl)c4)n3)CC2)cc1", "Potency": "inconclusive: 29.1 µM [inhibitor, single point]"}, {"compound": "O=c1cc(C(F)(F)F)[nH]c(=O)n1C1CCCCC1", "Potency": "inconclusive: 0.92 µM [inhibitor, full curve, poor fit]"}, {"compound": "c1ccc(C2CCC(N3CCN(c4ccccc4)CC3)CC2)cc1", "note": "(centres undefined)", "Potency": "inconclusive: 11.2 µM [inhibitor, partial curve, poor fit]"}, {"compound": "Cc1ccc(CN2CCC(c3nc4ccc(Cl)cc4[nH]3)CC2)cc1", "Potency": "active: 4.11 µM"}, {"compound": "CC(=O)Nc1ccc(C(=O)COC(=O)C2CC2)c(F)c1", "Potency": "inconclusive: 11.2 µM [activator, partial curve]"}, {"compound": "Cc1ccc(C(=O)/C=C/Nc2ccc3c(c2)OCO3)cc1", "Potency": "inconclusive: 1 µM [activator, full curve]"}, {"compound": "CC#CCN1c2ccccc2[C@]23CCC(=O)N(CCCOC(C)C)C2=NC(C(=O)OC)=C(C(=O)OC)[C@H]13", "Potency": "inactive"}, {"compound": "COC(=O)C1C2CC(C)C(c3ccccc32)N1C(=O)C(F)(F)F", "note": "(centres undefined)", "Potency": "inconclusive: 0.668 µM [inhibitor, partial curve, poor fit]"}, {"compound": "CCSc1nnc(NC(=O)c2cccs2)s1", "Potency": "inactive"}, {"compound": "COC(=O)c1sc(C(=O)OC)c(C(=O)OC)c1C(=O)OC", "Potency": "inconclusive: 6.31 µM [inhibitor, single point]"}, {"compound": "COc1ccc(/C=N/NC(=O)c2cnccn2)cc1O", "Potency": "inconclusive: 15.8 µM [activator, single point]"}, {"compound": "C/C(=N\\NC(=O)c1[nH]c2c([N+](=O)[O-])cc(C)cc2c1-c1ccccc1)c1cccnc1", "Potency": "inconclusive: 11.2 µM [inhibitor, partial curve]"}, {"compound": "CCC(Sc1ccccc1C(=O)O)C(=O)O", "note": "(centres undefined)", "Potency": "inconclusive: 5.8 µM [activator, partial curve, poor fit]"}, {"compound": "Cc1cc(C)nc(N/N=C/c2ccccc2OCC(=O)O)n1", "Potency": "inactive"}, {"compound": "CC(C)c1nc(N2CCN(C(=O)c3ccco3)CC2)c2c3c(sc2n1)CCCC3", "Potency": "active: 18.3 µM"}, {"compound": "CCOC(=O)CSC1=C(C#N)C(c2ccc(Cl)cc2)C(C(=O)OC)C(=O)N1", "note": "(centres undefined)", "Potency": "inconclusive: 20.6 µM [inhibitor, single point]"}, {"compound": "Cc1ccccc1C(=O)Nc1cccc(-c2ccc3nncn3n2)c1", "Potency": "inconclusive: 7.94 µM [inhibitor, partial curve, poor fit]"}, {"compound": "COc1ccc(NC(=S)Nc2ccccc2OC)c(OC)c1", "Potency": "inactive"}, {"compound": "COC(=O)c1ccc(-c2ccc(F)cc2)nc1C", "Potency": "inconclusive: 3.98 µM [activator, partial curve, poor fit]"}, {"compound": "COc1ccccc1C(=O)NCCn1cc(SCC(=O)Nc2ccccc2F)c2ccccc21", "Potency": "inconclusive: 35.5 µM [inhibitor, single point]"}, {"compound": "O=C(NC1CCN(Cc2ccccc2)CC1)c1c(F)cccc1F", "Potency": "inconclusive: 0.355 µM [activator, partial curve, poor fit]"}, {"compound": "O=C(CSc1nnc(-c2ccccn2)n1Cc1ccccc1)NC1CCCC1", "Potency": "inactive"}, {"compound": "CN(C(=O)c1coc(=O)c2ccccc12)c1ccccc1Cl", "Potency": "inconclusive: 35.5 µM [inhibitor, single point]"}, {"compound": "Cc1ccc(Cl)c(OCC(=O)Nc2ccccc2N2CCCCC2)c1", "Potency": "inconclusive: 3.55 µM [inhibitor, single point]"}, {"compound": "CCN(CC)S(=O)(=O)c1ccc(NC=C(C#N)C#N)cc1", "Potency": "inactive"}, {"compound": "CC(C)(C)n1ncc2c(=O)n(CC(=O)c3ccccc3)cnc21", "Potency": "inactive"}, {"compound": "COc1ccc(CC(=O)N/N=C/c2cccn2-c2ccc([N+](=O)[O-])cc2)cc1OC", "Potency": "inconclusive: 35.5 µM [inhibitor, single point]"}, {"compound": "CCOc1ccccc1N/C(=C(/C(Cl)=C(Cl)Cl)[N+](=O)[O-])n1cncn1", "Potency": "inactive and inconclusive: 6.31 µM [activator, single point]"}, {"compound": "CN(CC(=O)Nc1ccc(F)cc1)C(=O)COC(=O)CCN1C(=O)C2CC=CCC2C1=O", "note": "(centres undefined)", "Potency": "inconclusive: 0.891 µM [inhibitor, single point]"}, {"compound": "CC(C)CCNC(=O)C1CCC(CNc2c(N3CCCC3)c(=O)c2=O)CC1", "note": "(centres undefined)", "Potency": "inactive"}, {"compound": "CC(C)CCNC(=O)c1ccccc1SCC(=O)NC1CCCCCCC1", "Potency": "inconclusive: 11.2 µM [inhibitor, partial curve, poor fit]"}, {"compound": "Cc1ccc(NCSc2ccc(Cl)cc2)cc1", "Potency": "inactive"}, {"compound": "CC(C)(C)c1ccc(/C=C/C(=O)c2ccc(NC3=NCCCS3)cc2)cc1", "Potency": "inactive"}, {"compound": "Nc1nnc(SCCCC(=O)c2ccc(Br)cc2)s1", "Potency": "inactive"}, {"compound": "Cc1cc2oc(=O)cc(CN3CCC(C)CC3)c2cc1Cl", "Potency": "inconclusive: 2.59 µM [activator, partial curve]"}, {"compound": "CCOC(=O)Nc1ccc(OC)c([N+](=O)[O-])c1", "Potency": "inactive"}, {"compound": "O=C1Nc2ccc(C(=O)O)c(O)c2C1=O", "Potency": "inactive"}, {"compound": "NC(=S)N1OC[C@@H]2COc3ccc4ccccc4c3[C@@H]21", "Potency": "inconclusive: 12.6 µM [activator, partial curve]"}, {"compound": "O=C(NCc1ccc(OC(F)(F)F)cc1)C1CCC(=O)N(C2CC2)C1", "note": "(centres undefined)", "Potency": "inconclusive: 6.31 µM [activator, single point]"}, {"compound": "COC(=O)c1cccc(Cn2c(Cl)c(/C=N/Nc3ccccc3C)sc2=O)c1", "Potency": "inactive"}, {"compound": "COc1cccc(CN(C)C(=O)c2cccc(S(=O)(=O)NCc3ccccc3)c2)c1OC", "Potency": "inactive"}, {"compound": "O=C1c2ccccc2S(=O)(=O)N1CC(O)Cn1ccc2ccccc21", "note": "(centres undefined)", "Potency": "inconclusive: 35.5 µM [activator, single point]"}, {"compound": "O=C1N/C(=N\\N=C\\c2cccs2)SC1Cc1cccc(Cl)c1Cl", "note": "(centres undefined)", "Potency": "inconclusive: 2 µM [inhibitor, full curve, poor fit]"}, {"compound": "COC(=O)c1sccc1N/N=C/c1ccc(OC)c(OC)c1OC", "Potency": "inconclusive: 5.62 µM [activator, single point]"}]}]}
